Measured values published in PMC3422304.
These are yes or no findings as the source states them, for the method shown. Binding seen in cells or lysates may run through a third protein. Where a sequence is shown, tags or fusion partners need not be part of it.

Experiments:
[1] = molecular target: T1, Din1-myc (Schizosaccharomyces pombe) (UniProt O13836); assay: co-IP; total cell lysates of S. pombe strains expressing Rhn1-PK alone or with Dhp1-myc, Din1-myc or Pcf11-myc; immunoprecipitation with anti-myc; immunoprecipitates and inputs analysed on Western blots
T1 sequence: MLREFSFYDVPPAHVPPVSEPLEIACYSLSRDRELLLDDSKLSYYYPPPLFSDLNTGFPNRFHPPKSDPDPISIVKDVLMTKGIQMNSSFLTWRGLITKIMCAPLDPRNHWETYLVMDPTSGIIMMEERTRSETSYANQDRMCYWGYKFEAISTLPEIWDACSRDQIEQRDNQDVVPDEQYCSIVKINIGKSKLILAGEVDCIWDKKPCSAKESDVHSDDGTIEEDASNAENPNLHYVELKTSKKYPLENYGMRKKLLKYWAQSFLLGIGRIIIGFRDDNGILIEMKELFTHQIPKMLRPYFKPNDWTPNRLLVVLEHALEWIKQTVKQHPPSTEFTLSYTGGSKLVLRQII

[2] = molecular target: T2, Dhp1-myc (Schizosaccharomyces pombe) (UniProt P40848); assay: as above
T2 sequence: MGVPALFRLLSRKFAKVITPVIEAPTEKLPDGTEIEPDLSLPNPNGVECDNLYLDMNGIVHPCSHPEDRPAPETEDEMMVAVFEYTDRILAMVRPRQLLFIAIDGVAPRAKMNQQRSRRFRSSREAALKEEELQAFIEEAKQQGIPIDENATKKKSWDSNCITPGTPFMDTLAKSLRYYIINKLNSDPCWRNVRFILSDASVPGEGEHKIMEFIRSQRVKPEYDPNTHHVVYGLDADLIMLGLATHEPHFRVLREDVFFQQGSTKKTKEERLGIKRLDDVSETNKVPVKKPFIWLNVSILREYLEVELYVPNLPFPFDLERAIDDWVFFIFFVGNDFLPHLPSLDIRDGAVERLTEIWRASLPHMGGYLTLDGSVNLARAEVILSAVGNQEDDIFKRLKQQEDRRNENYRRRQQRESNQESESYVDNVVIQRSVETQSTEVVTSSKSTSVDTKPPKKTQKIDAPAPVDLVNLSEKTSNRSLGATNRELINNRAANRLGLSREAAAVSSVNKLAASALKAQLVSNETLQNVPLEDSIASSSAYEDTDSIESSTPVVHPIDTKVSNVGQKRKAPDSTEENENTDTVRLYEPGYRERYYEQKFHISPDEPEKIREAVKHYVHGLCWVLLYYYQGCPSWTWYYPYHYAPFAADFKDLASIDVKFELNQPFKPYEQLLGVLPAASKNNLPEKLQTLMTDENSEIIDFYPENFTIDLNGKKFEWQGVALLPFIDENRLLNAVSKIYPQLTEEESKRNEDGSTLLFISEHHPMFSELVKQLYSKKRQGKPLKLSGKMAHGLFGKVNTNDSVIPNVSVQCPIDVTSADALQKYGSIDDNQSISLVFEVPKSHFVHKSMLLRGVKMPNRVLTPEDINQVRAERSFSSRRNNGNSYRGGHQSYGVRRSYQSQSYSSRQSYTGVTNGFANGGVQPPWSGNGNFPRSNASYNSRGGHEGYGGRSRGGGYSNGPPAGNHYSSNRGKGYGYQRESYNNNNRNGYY

B1: Rhn1-PK (protein, UniProt O74814 1-387)
chain: MALTPDTVSSKLATLNETQESITGIAHWVMFHKRYADEIVQIWLEALYESSSNKKLLLLYLLNEVVQQSRVKKISEYIDAVSPYVVNSVADAYASVPASIKTKIKYVFDVWCQRGIFSKEILLSLQERFNNAENSGHSNYYPVGPPEWAPYTRLMTQTSLYAKSAHSTKTVVDALYKSYLEKQSDYSELLDNYKKQLNKASESCKGNYQACIESRSTLITSLESLIEEQKKLLSEEEESLKSVESIISNLENKESTTATSTLTDAGFGDKSSTAGKHNVETTSPPSSSPNSDDAYSPQVDSYSPSINSVPYTSNIVENPSEDNLSPLPPPASGPYSQEEEETSLFKSQRKEENEEESKELPEDSDIYGKDSSPSSDDSSAAGLYGDS
binding [1]: no binding
binding [2]: no binding
